Test results from PubChem BioAssay AID493014 (National Center for Advancing Translational Sciences (NCATS), 2011).
Hit rate of the full screen: of about 340,000 compounds, about 170 (0.05%) were called active. Inconclusive results, whose numbers are uncertain, are shown with a selection of clear calls. Calls follow the shape of the dose curve; as a rule, active = well fitted inhibition curve with a large enough effect in the signal ratio, with a control signal flat (not every such curve was filed as active); inconclusive = small, poorly fitted or top-dose-only effect, or effect the other way, or a change in a side signal; inactive = flat fitted curve, though single readings scatter; the % refers to the signal ratio. Where the call is inconclusive, the potency comes from a doubtful curve fit.

Assay: qHTS Assay to Find Inhibitors of Chronic Active B-Cell Receptor Signaling;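 as to activity change, negative = inhibition: plate controls were basal doxycycline-induced cells for no effect and cells given 10 µM MG132 for full effect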
Conditions: ABC-DLBCL IkBa-CBG/CBR reporter, luminescence ratio (green luciferase fused to IkBa over red control in TMD8 lymphoma cells), 4 h; activity change, negative = inhibition: at 46.1 µM (top of the series) unless noted
Procedure, shortened: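 Cell line TMD8 (human ABC DLBCL), stably expressing tet-inducible CBG68-IkBa fusion and CBR; IMDM/0.5% FBS; cpd up to 46 uM; dox induction, 4 h, 37C/5% CO2; dual luminescence; green/red ratio; MG132 control.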
Potency is read from the fitted curve at half-maximal effect.

| SMILES | Potency | activity change, negative = inhibition |
| --- | --- | --- |
| Cc1nc(C)c(C(=O)OCC(=O)Nc2ccccc2SCC#N)s1 | inconclusive: 23.1 µM [falling, partial curve, poor fit] |  |
| O=C(NCCn1cc(SCc2ccc(F)cc2)c2ccccc21)c1ccccc1F |  | inconclusive: -13.3% |
| C/C(=N\NC(=S)NC1CCCCC1)c1ccc(O)cc1 | inconclusive: 31.6 µM [cytotoxic, single point] |  |
| O=S(=O)(CCN1C=CC(C(F)(F)F)=NCC1)c1ccc(F)cc1 |  | inconclusive: -16.8% |
| CCn1nc(NC(=O)c2ccco2)c2cc3ccccc3nc21 |  | inconclusive: -1.73% |
| CCOc1cccc(C(=O)NC(=S)Nc2ccc(N3CCN(CC)CC3)cc2)c1 |  | inactive |
| CC(C)CNc1c(N)n(CC(C)C)c(=O)[nH]c1=O |  | inconclusive: -1.82% |
| CCCN=C1N/C(=C\c2ccco2)C(=O)N1c1ccccc1 |  | inactive |
| CN(CC(=O)Nc1nc2ccc(F)cc2s1)S(=O)(=O)c1ccc(Cl)cc1 | inconclusive: 20.6 µM [rising, partial curve, poor fit] |  |
| CC1(c2ccc(Cl)cc2Cl)NC(=O)N(CC(=O)Nc2ccc3[nH]c(=O)[nH]c3c2)C1=O (stereo not drawn) |  | inconclusive: 8.65% |
| CC1CCN(CC2C(=O)O[C@@H]3C[C@@]4(C)CCC[C@H](C)C4=C[C@H]23)CC(C)(C)C1 (stereo partly drawn) | inconclusive: 22.4 µM [falling, single point] |  |
| Cc1nc2ccccn2c1C(=O)/C=C/c1ccc(F)cc1 |  | inactive |
| S=c1nc2ccccc2c2nc(-c3ccccc3)[nH]n12 | inconclusive: 1.58 µM [cytotoxic, full curve] |  |
| OCCOCCNc1ncnc2sc(-c3ccccc3)cc12 | inconclusive: 3.66 µM [rising, partial curve, poor fit] |  |
| Cc1ccc(S(=O)(=O)CCC(=O)OCC(=O)c2cc(C)ccc2C)cc1 |  | inactive |
| Cc1oc2c(CN3CCOCC3)c(O)ccc2c(=O)c1-c1ccccc1 |  | inconclusive: 0.72% |
| COc1ccccc1Nc1ncnc2nc[nH]c12 | inconclusive: 3.26 µM [falling, full curve] |  |
| COc1ccc(CN2CCCC(C(=O)Nc3cccc(-n4cnnn4)c3)C2)c(C)c1C (stereo not drawn) |  | inactive |
| COC(=O)CNC(c1ccccc1)c1cc(Br)ccc1NC(=O)CCN1CCOCC1 (stereo not drawn) |  | inconclusive: 3.16% |
| C/C(Cc1ccccc1)=N\NC(=O)c1cccnc1 | inconclusive: 29.1 µM [falling, single point] |  |
| FC(F)(F)c1cc(C(F)(F)F)c2ccc(Oc3ccccc3)nc2n1 |  | inconclusive: 12.4% |
| CC[C@]12c3[nH]c4cc(CCC(=O)N(C)C)ccc4c3CCN1C(=O)[C@@H](CC(=O)NC(C)(C)C)C[C@@H]2C(=O)N1CCN(C(=O)c2ccco2)CC1 | inconclusive: 16.4 µM [falling, single point] |  |
| CCOC(=O)c1oc2ccccc2c1NC(=O)Cc1cccs1 | inconclusive: 35.5 µM [falling, single point] |  |
| O=C1C(Cl)=C(NCCN2CCCCC2)C(=O)c2ccccc21 | inconclusive: 35.5 µM [rising, single point] |  |
| O=C(O)c1cccc(NC(=S)NC(=O)C(c2ccccc2)c2ccccc2)c1 |  | inconclusive: -27.6% |
| CCOC(=O)c1sc(NC(=O)CS(=O)(=O)c2ccc(C)cc2)nc1C | inconclusive: 22.4 µM [falling, partial curve] |  |

| SMILES | Potency | activity change, negative = inhibition |
| --- | --- | --- |
| COc1ccccc1NC(=O)Nc1nc(CC(=O)N2CCN(c3ccccc3)CC2)cs1 | inconclusive: 20.6 µM [falling, partial curve, poor fit] |  |
| N#C/C(=C\N1CCN(Cc2ccc3c(c2)OCO3)CC1)c1nc2ccccc2s1 |  | inconclusive: -1.67% |
| O=C1/C(=C/c2cccnc2)SC(=S)N1C1CCS(=O)(=O)C1 (stereo not drawn) |  | inconclusive: -24.8% |
| CCOc1ccc(Br)cc1S(=O)(=O)N1CCSC1 |  | inconclusive: 0.99% |
| COC(=O)c1ccccc1C(=O)N1CC(O)CO1 (stereo not drawn) |  | inactive |
| COc1ccc(-c2cc(C(C)=O)c(C)n2CCC(=O)NCc2ccc(F)cc2)cc1 | inconclusive: 35.5 µM [falling, single point] |  |
| O=C(CN1CCCCCC1)Nc1ccccc1Cl | inconclusive: 22.4 µM [falling, partial curve] |  |
| CCN(CC)CCNc1nc(SC)nc2sc3c(c12)CCN(C)C3 |  | inconclusive: -2.41% |
| COc1cc(C2CC(=O)Nc3c2c(=O)n(C)c(=O)n3C)cc(OC)c1OC (stereo not drawn) |  | inactive |
| O=C(N/N=C/c1ccccn1)c1cc(-c2ccccc2)nc2ccccc12 |  | inconclusive: -5.33% |
| Fc1ccc(Nc2ncnc3sccc23)cc1 | inconclusive: 7.08 µM [falling, full curve] |  |
| CCC(=O)Nc1nc(-c2cc([N+](=O)[O-])cs2)cs1 | inconclusive: 5.62 µM [rising, partial curve, poor fit] |  |
| COC(=O)c1sc2nc(-c3ccccc3)c3c(c2c1N)CCCC3 |  | inactive |
| CCc1cc(=O)oc2c(C)c(O[C@@H]3O[C@H](CO)[C@@H](O)[C@H](O)[C@H]3O)ccc12 |  | inactive |
| CCSc1nnc(-c2ccc(Cl)cc2Cl)o1 |  | inconclusive: 3.48% |
| C=CCc1cccc(CNc2c(C)n(C)n(-c3ccccc3)c2=O)c1O |  | inconclusive: -3.85% |
| CCn1c(=O)cc(SCC(=O)N(C)Cc2ccccc2)c2ccccc21 | inconclusive: 20.6 µM [falling, single point] |  |
| Cc1ccc(S(=O)(=O)N(C)c2ccc(OCC(=O)Nc3nc(-c4ccccc4)cs3)cc2)cc1 |  | inconclusive: 7.89% |
| COc1ccc(CCNC(=O)CCc2cn(C)c3ccccc23)c(OC)c1 |  | inconclusive: 1.05% |
| CC(NC(=O)Nc1ccc(Br)cc1)C(C)(C)C (stereo not drawn) |  | inconclusive: 0.137% |
| O=S(=O)(Nc1ncccn1)c1ccc(NS(=O)(=O)c2cccc(Cl)c2Cl)cc1 |  | inconclusive: -0.353% |
| Cc1cc(-c2cccc([N+](=O)[O-])c2)nc2ccccc12 |  | inconclusive: 3.71% |
| CN(Cc1cnn(C)c1)C(=O)c1sc2cccc(Cl)c2c1Cl | inconclusive: 11.6 µM [falling, partial curve] |  |
| Cc1cc([N+](=O)[O-])ccc1NCc1ccc2c(c1)OCCO2 |  | inactive |
| CCOC(=O)Cc1csc(NC(=O)COc2ccccc2OC)n1 | inconclusive: 11.2 µM [falling, partial curve] |  |
| COC(=O)c1ccc(CNC(=O)c2ccc3c(c2)NC(=O)CS3)cc1 |  | inconclusive: -0.32% |

As a short view, part of the list above:

| SMILES | Potency | activity change, negative = inhibition |
| --- | --- | --- |
| O=S(=O)(CCN1C=CC(C(F)(F)F)=NCC1)c1ccc(F)cc1 |  | inconclusive: -16.8% |
| CCn1nc(NC(=O)c2ccco2)c2cc3ccccc3nc21 |  | inconclusive: -1.73% |
| CCOc1cccc(C(=O)NC(=S)Nc2ccc(N3CCN(CC)CC3)cc2)c1 |  | inactive |
| CC(C)CNc1c(N)n(CC(C)C)c(=O)[nH]c1=O |  | inconclusive: -1.82% |

Further results follow:

| SMILES | Potency | activity change, negative = inhibition |
| --- | --- | --- |
| COC(=O)c1ccccc1NC(=O)N1CCN(c2ccccc2)CC1 |  | inconclusive: 6.78% |
| C/C(=N/Nc1nc(C)cc(-c2ccccc2)n1)c1ccco1 |  | inconclusive: -30% |
| CCOC(=O)N1CCN(C(=O)c2ccccc2NC(C)=O)CC1 | inconclusive: 14.1 µM [falling, partial curve, poor fit] |  |
| COc1ccc(-c2nc3c(c(=O)[nH]c(=O)n3Cc3ccccc3)n2C)cc1 | inconclusive: 7.31 µM [falling, partial curve, poor fit] |  |
| CC(NCc1ccco1)C(=O)N1CCc2ccccc2C1 (stereo not drawn) |  | inconclusive: 12.9% |
| COc1ccc(CNc2ncc(-c3ccccc3)n2C)c(OC)c1OC |  | inactive |
| O=C(COc1ccccc1[N+](=O)[O-])NCC1(N2CCOCC2)CCCCC1 |  | inconclusive: -4.67% |
| Cc1[nH]c2ccccc2c1C(=O)COC(=O)c1ccc[n+]([O-])c1 | inconclusive: 20 µM [falling, single point] |  |
| CCc1ccc(NC(=O)C(=O)NCC2CCCN2S(=O)(=O)c2cccs2)cc1 (stereo not drawn) |  | inconclusive: -25.7% |
| Cc1ccc(Sc2nnc(Cc3ccccc3)c3ccccc23)cc1 |  | inconclusive: -16.9% |
| Cc1cc(O)c(NC(=O)c2cccc([N+](=O)[O-])c2)cc1C |  | inconclusive: -15.7% |
| CCOC(=O)c1c(-c2ccc(C)cc2C)csc1NC(=O)CSc1nnnn1C |  | inconclusive: 6.23% |
| O=c1c2c(nc3c(-c4ccc(Cl)cc4)c[nH]n13)CCCC2 |  | inactive |
| CCC(=O)Nc1sc2c(c1C#N)CCCCC2 |  | inconclusive: -9.32% |
| CCOC(=O)C1CCN(C(=O)c2cc3c(-c4ccc(OC)c(OC)c4)nn(C)c3s2)CC1 | inconclusive: 17.8 µM [falling, single point] |  |
| CCCCC/C=C/C1=CC(=O)C[C@H](c2ccc(OC)c(OC)c2)C1 |  | inactive |
| O=C1Nc2ccc(F)cc2C12Nc1ccccc1-c1nnc(SCc3ccccc3F)nc1O2 (stereo not drawn) | inconclusive: 35.5 µM [falling, single point] |  |
| Cc1ccc(OCC(=O)Nc2sc3c(c2C#N)CCC3)cc1 |  | inconclusive: 5.4% |
| Cc1ccc(-c2cc3ncc(C#N)c(N)n3n2)cc1 |  | inactive |
| Cc1ccc2cc(C3CC(c4cccs4)=NN3S(C)(=O)=O)c(Cl)nc2c1 (stereo not drawn) | inconclusive: 35.5 µM [falling, single point] |  |
| O=C(C[C@H]1C/C=C\CCC(=O)O[C@@H](c2ccccc2)CNC1=O)NCCO |  | inactive |
| N=C1c2ccccc2CN1NC(=O)c1cccc(S(=O)(=O)N2CCCCC2)c1 |  | inconclusive: 5.8% |
| Cc1cc(C(=O)Nc2ccc3c(c2)OCO3)cs1 | inconclusive: 20.6 µM [falling, partial curve, poor fit] |  |
| CC(C)CCNC1=CC(=O)CC(c2ccccc2)C1 (stereo not drawn) |  | inconclusive: -0.359% |
| Cc1ccc(OCC(=O)Nc2cnn(CCCC(=O)O)c2)c([N+](=O)[O-])c1 | inconclusive: 25.1 µM [falling, single point] |  |
| CCOC(=O)C(C)Sc1nc(-c2ccccn2)ncc1OC (stereo not drawn) |  | inactive |
